Reference: paper PMC8062868
For at least one entry, the source does not settle the construct or the ends of the probe. For some of these results: No signal at the amounts used counts as a negative.

Assays:
[1] = molecular target: ScbR (gamma-butyrolactone receptor) (Streptomyces coelicolor A3(2)) (UniProt Q7AKF1); test: EMSA; conditions: 100 ng herring sperm DNA, EMSA: 10 mM Tris-HCl pH 7.5, 50 mM KCl, 1 mM DTT (1x LI-COR buffer) plus DTT/Tween 20 mix, 16 ul, 20 min, room temperature, recombinant protein, residues 1-215, label: IRDye 800, probe letters rebuilt from the primers and the genome, part of a longer molecule
[2] = tested on: ScbR2 (Streptomyces coelicolor A3(2)); test: EMSA; conditions: 100 ng herring sperm DNA, EMSA: 10 mM Tris-HCl pH 7.5, 50 mM KCl, 1 mM DTT (1x LI-COR buffer) plus DTT/Tween 20 mix, 16 ul, 20 min, room temperature, recombinant protein, label: IRDye 800, probe letters rebuilt from the primers and the genome, part of a longer molecule

Row | Sequence | binding result [1] | binding result [2]
1 | GCCGTCGTCGCCGACGATCTCGAACGGGCCCATGAGATTGAACCGCACTGCCTCACACTCCTGTCCCGGCACACGGTTTGCCGTGCCGCGGATGTCGTACGTACACGGAGATCCGGCCGCCGCGGAACGCGGGACTCACCG (double strand) [pcpkN-a] | binds | no binding
2 | GCCGTCGTCGCCGACGATCTCGAACGGGCCCATGAGATTGAACCGCACTGCCTCACACTCCTGTCCCGGCACACGGTTTGCCGTGCCGCGGATGTCGTACGTACACGGAGATCCGGCCGCCGCGGAACGCGGGACTCACCGGCCGCCGGGTGGCGGGACCGCGGAGTCGAGAGAAGAGACCGAGCGGTCCGTTTCATTGTGGGCCAGGAGTACCCACTGGGGACTCAC (double strand) [pcpkN] | binds | binds
